# Data published in patent publication US20240076313A1, “POLYPEPTIDES RV3 AND RV4 HAVING ANTI-AGING FUNCTION AND APPLICATIONS THEREOF” (NANJING ANJI BIOLOGICAL TECHNOLOGY CO., LTD, priority 2020, published 2024).
# At least one peptide structure holds a part that was inferred or is arguable (an end, a ring closure or a residue). No end group written: not given here.
# Experiments:
# Assay type in all cases: in vivo
# [1] = tested on: Caenorhabditis elegans; assay: Experiment on acute heat stress of Caenorhabditis elegans; conditions: for Number of remaining nematodes: 10 nM
# [2] = tested on: Caenorhabditis elegans; assay: Detection of the ability of movement behavior of Caenorhabditis elegans; conditions: 10 nM
# [3] = tested on: Caenorhabditis elegans; assay: Experiment on the lifespan of Caenorhabditis elegans; conditions: 10 nM; for Number of remaining nematodes: lifespan experiment
# [4] = tested on: Caenorhabditis elegans; assay: Experiment on acute oxidative stress of Caenorhabditis elegans
# [5] = tested on: Caenorhabditis elegans; assay: Experiment on the decline of movement ability of Caenorhabditis elegans; conditions: for Proportion of nematodes in grade A (autonomous crawling) / Proportion of nematodes in grade B (between A and C) / Proportion of nematodes in grade C (move only after heads are touched): no stress
# [6] = heat stress on Day 4, after 24 h
# [7] = heat stress on Day 8, after 6 h
# [8] = 48 h culture from L1, Mean ± SEM
# [9] = oxidative stress on Day 4, after 24 h
# [10] = oxidative stress on Day 8, after 24 h
substance,measurement,setting,value
"TKAAA [RV4, Thr-Lys-Ala-Ala-Ala]",time to half death compared with the control group (in words),[1]; acute heat stress on Day 4,no difference
same,time when death occurs compared with the control group (in words),[1]; acute heat stress on Day 4,no difference
same,time to half death compared with the control group (in words),[1]; acute heat stress on Day 8,significant difference
same,time when death occurs compared with the control group (in words),[1]; acute heat stress on Day 8,delayed
same,Number of remaining nematodes,"[1]; heat stress 35° C. on Day 4 of dosing, 0 h",22
same,Number of remaining nematodes,"[1]; heat stress 35° C. on Day 4 of dosing, 4 h",22
same,Number of remaining nematodes,"[1]; heat stress 35° C. on Day 4 of dosing, 8 h",22
same,Number of remaining nematodes,"[1]; heat stress 35° C. on Day 4 of dosing, 12 h",21
same,Number of remaining nematodes,"[1]; heat stress 35° C. on Day 4 of dosing, 16 h",20
same,Number of remaining nematodes,"[1]; heat stress 35° C. on Day 4 of dosing, 20 h",16
same,Number of remaining nematodes,"[1]; heat stress 35° C. on Day 4 of dosing, 24 h",11
same,Number of remaining nematodes,"[1]; heat stress 35° C. on Day 4 of dosing, 28 h",4
same,Number of remaining nematodes,"[1]; heat stress 35° C. on Day 4 of dosing, 32 h",0
same,Number of remaining nematodes,"[1]; heat stress 35° C. on Day 4 of dosing, 36 h",0
same,Number of remaining nematodes,"[1]; heat stress 35° C. on Day 8 of dosing, 0 h",24
same,Number of remaining nematodes,"[1]; heat stress 35° C. on Day 8 of dosing, 2 h",24
same,Number of remaining nematodes,"[1]; heat stress 35° C. on Day 8 of dosing, 4 h",24
same,Number of remaining nematodes,"[1]; heat stress 35° C. on Day 8 of dosing, 6 h",23
same,Number of remaining nematodes,"[1]; heat stress 35° C. on Day 8 of dosing, 8 h",17
same,Number of remaining nematodes,"[1]; heat stress 35° C. on Day 8 of dosing, 10 h",17
same,Number of remaining nematodes,"[1]; heat stress 35° C. on Day 8 of dosing, 12 h",10
same,Number of remaining nematodes,"[1]; heat stress 35° C. on Day 8 of dosing, 14 h",7
same,Number of remaining nematodes,"[1]; heat stress 35° C. on Day 8 of dosing, 16 h",4
same,Number of remaining nematodes,"[1]; heat stress 35° C. on Day 8 of dosing, 18 h",1
same,Number of remaining nematodes,"[1]; heat stress 35° C. on Day 8 of dosing, 20 h",0
same,proportion of nematodes in grade A compared with the control group (in words),[1]; heat stress on Day 4,higher than that in the control group
same,Time to half death,"[1]; heat stress on Day 4, Median ± SE",24.000 ± 1.563 h
same,Proportion of nematodes in grade A (autonomous crawling),[1]; [6],23.08%
same,Proportion of nematodes in grade B (between A and C),[1]; [6],23.08%
same,Proportion of nematodes in grade C (move only after heads are touched),[1]; [6],53.85%
same,Time to half death,"[1]; heat stress on Day 8, Median ± SE",12.000 ± 1.380 h
same,Proportion of nematodes in grade A (autonomous crawling),[1]; [7],29.63%
same,Proportion of nematodes in grade B (between A and C),[1]; [7],51.85%
same,Proportion of nematodes in grade C (move only after heads are touched),[1]; [7],18.52%
same,ability of movement behavior compared with the control group (in words),[2],has a significant difference
same,Frequency of body bending,[2]; [8],14.75 ± 0.354 /30 s
same,Frequency of head swing,[2]; [8],63.40 ± 1.297 /30 s
same,Frequency of pharyngeal pumping,[2]; [8],175.15 ± 3.368 /30 s
same,day when death occurs compared with the control group (in words),[3],delayed
same,longest lifespan of the nematodes,[3],33 days
same,time to half death compared with the control group (in words),[3],very significant difference
same,Time to half death,[3]; Median ± SE,24.000 ± 1.230 days
same,Number of remaining nematodes,[3]; day 0,33
same,Number of remaining nematodes,[3]; day 1,33
same,Number of remaining nematodes,[3]; day 2,33
same,Number of remaining nematodes,[3]; day 3,33
same,Number of remaining nematodes,[3]; day 4,33
same,Number of remaining nematodes,[3]; day 5,33
same,Number of remaining nematodes,[3]; day 6,33
same,Number of remaining nematodes,[3]; day 7,33
same,Number of remaining nematodes,[3]; day 8,33
same,Number of remaining nematodes,[3]; day 9,33
same,Number of remaining nematodes,[3]; day 10,33
same,Number of remaining nematodes,[3]; day 11,33
same,Number of remaining nematodes,[3]; day 12,33
same,Number of remaining nematodes,[3]; day 13,32
same,Number of remaining nematodes,[3]; day 14,32
same,Number of remaining nematodes,[3]; day 15,32
same,Number of remaining nematodes,[3]; day 16,32
same,Number of remaining nematodes,[3]; day 17,30
same,Number of remaining nematodes,[3]; day 18,29
same,Number of remaining nematodes,[3]; day 19,26
same,Number of remaining nematodes,[3]; day 20,26
same,Number of remaining nematodes,[3]; day 21,25
same,Number of remaining nematodes,[3]; day 22,22
same,Number of remaining nematodes,[3]; day 23,19
same,Number of remaining nematodes,[3]; day 24,16
same,Number of remaining nematodes,[3]; day 25,16
same,Number of remaining nematodes,[3]; day 26,12
same,Number of remaining nematodes,[3]; day 27,9
same,Number of remaining nematodes,[3]; day 28,6
same,Number of remaining nematodes,[3]; day 29,6
same,Number of remaining nematodes,[3]; day 30,4
same,Number of remaining nematodes,[3]; day 31,3
same,Number of remaining nematodes,[3]; day 32,2
same,Number of remaining nematodes,[3]; day 33,1
same,Number of remaining nematodes,[3]; day 34,0
same,"longest lifespan, longer than that of the control group",[3]; vs control group,5 days
same,prolongation of the lifespan (time to half death vs control),[3]; vs control group,4 days
same,Survival rate,"[4]; oxidative stress (30 mM H2O2, 4 h) on Day 4, Mean ± SEM",0.960 ± 0.040
same,Survival rate,"[4]; oxidative stress (30 mM H2O2, 4 h) on Day 8, Mean ± SEM",0.868 ± 0.010
same,Proportion of nematodes in grade A (autonomous crawling),[4]; [9],52.00%
same,Proportion of nematodes in grade B (between A and C),[4]; [9],36.00%
same,Proportion of nematodes in grade C (move only after heads are touched),[4]; [9],12.00%
same,survival rate of nematodes compared with the control group (in words),[4]; oxidative stress on Day 4 and Day 8,significant difference
same,proportion of nematodes in grade A compared with the control group (in words),[4]; oxidative stress on Day 8,higher than that in the control group
same,Proportion of nematodes in grade A (autonomous crawling),[4]; [10],34.62%
same,Proportion of nematodes in grade B (between A and C),[4]; [10],46.15%
same,Proportion of nematodes in grade C (move only after heads are touched),[4]; [10],19.23%
same,frequency of head swing compared with the control group (in words),"[5]; Day 4, Day 8, and Day 12",significant difference
same,Frequency of head swing,"[5]; Day 4, Mean ± SEM",69.050 ± 1.739 /30 s
same,Frequency of pharyngeal pumping,"[5]; Day 4, Mean ± SEM",147.444 ± 6.132 /30 s
same,Proportion of nematodes in grade A (autonomous crawling),[5]; Day 4 of dosing,100.00%
same,Proportion of nematodes in grade B (between A and C),[5]; Day 4 of dosing,0.00%
same,Proportion of nematodes in grade C (move only after heads are touched),[5]; Day 4 of dosing,0.00%
same,Frequency of head swing,"[5]; Day 8, Mean ± SEM",42.733 ± 2.194 /30 s
same,Frequency of pharyngeal pumping,"[5]; Day 8, Mean ± SEM",105.330 ± 6.346 /30 s
same,proportion of nematodes in grade A compared with the control group (in words),[5]; Day 8 and Day 12,higher than that in the control group
same,proportion of nematodes in grade C compared with the control group (in words),[5]; Day 8 and Day 12,lower than that in the control group
same,Proportion of nematodes in grade A (autonomous crawling),[5]; Day 8 of dosing,60.00%
same,Proportion of nematodes in grade B (between A and C),[5]; Day 8 of dosing,16.00%
same,Proportion of nematodes in grade C (move only after heads are touched),[5]; Day 8 of dosing,24.00%
same,Frequency of head swing,"[5]; Day 12, Mean ± SEM",23.750 ± 3.619 /30 s
same,Frequency of pharyngeal pumping,"[5]; Day 12, Mean ± SEM",96.500 ± 8.109 /30 s
same,Proportion of nematodes in grade A (autonomous crawling),[5]; Day 12 of dosing,57.14%
same,Proportion of nematodes in grade B (between A and C),[5]; Day 12 of dosing,14.29%
same,Proportion of nematodes in grade C (move only after heads are touched),[5]; Day 12 of dosing,28.57%
same,frequency of pharyngeal pumping compared with the control group (in words),[5]; day 4,significant difference
same,frequency of pharyngeal pumping compared with the control group (in words),[5]; day 8 and day 12,non-significantly higher
